From PubChem BioAssay AID602162 (NMMLSC, 2011)
Screen size: about 360,000 compounds; about 690 (0.19%) were called active. This list was built around the results that the source calls inconclusive (neither active nor inactive); the mix of calls is not that of the screen.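 The calls were made as follows: active = fluorescence ratio to DMSO below 75%, the collection mean minus 3 SD; inconclusive = too few cells collected in the well; inactive = the rest.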

Amino acid sequences for entries named in this document (tags omitted).
UniProt Q9NP58, whole entry, looked up: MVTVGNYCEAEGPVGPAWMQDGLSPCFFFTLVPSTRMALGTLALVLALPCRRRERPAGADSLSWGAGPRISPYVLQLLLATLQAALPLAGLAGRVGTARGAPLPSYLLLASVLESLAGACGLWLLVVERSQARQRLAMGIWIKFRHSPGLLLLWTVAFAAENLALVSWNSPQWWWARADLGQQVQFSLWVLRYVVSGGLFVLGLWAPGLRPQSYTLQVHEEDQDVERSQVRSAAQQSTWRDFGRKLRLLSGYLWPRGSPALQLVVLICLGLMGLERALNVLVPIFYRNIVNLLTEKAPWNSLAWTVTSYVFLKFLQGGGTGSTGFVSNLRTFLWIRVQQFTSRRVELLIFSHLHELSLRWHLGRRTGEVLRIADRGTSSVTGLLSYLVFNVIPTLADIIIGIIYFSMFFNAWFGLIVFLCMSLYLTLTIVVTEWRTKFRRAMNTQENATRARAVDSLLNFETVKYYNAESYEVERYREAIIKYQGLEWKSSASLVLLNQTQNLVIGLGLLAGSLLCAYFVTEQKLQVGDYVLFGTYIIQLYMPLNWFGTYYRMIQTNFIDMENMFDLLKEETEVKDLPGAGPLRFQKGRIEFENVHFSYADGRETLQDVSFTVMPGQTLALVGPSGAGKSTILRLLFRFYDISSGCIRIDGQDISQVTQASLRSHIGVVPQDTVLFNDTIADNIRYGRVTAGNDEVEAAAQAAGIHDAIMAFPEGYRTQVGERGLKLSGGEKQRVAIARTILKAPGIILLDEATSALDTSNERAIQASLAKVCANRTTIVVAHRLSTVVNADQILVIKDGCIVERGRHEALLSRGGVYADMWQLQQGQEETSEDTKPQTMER

Biological target: ATP-binding cassette sub-family B member 6 (Homo sapiens) (UniProt Q9NP58)
Test: blockers of ABCB6-driven porphyrin uptake – K562-ABCB6 cells, flow cytometry, MLPCN library, primary screen (AID 602162);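 as to fluorescence ratio to DMSO: signal is porphyrin accumulated inside mitochondria; 100% equals median channel fluorescence of DMSO control wells; lower ratio means ABCB6 inhibition with less porphyrin fluorescence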
Settings: K562-ABCB6 porphyrin accumulation, 1 h; at 10 µM, stronger effect = lower value

How did the fluorescence ratio to DMSO turn out when `CCCc1nc2ccc(Cl)cn2c1Cc1ccc(C)cc1` was run?
Its fluorescence ratio to DMSO is inactive: 101%.

With `O=[N+]([O-])c1ccc(NCc2ccccc2N2CCC(CO)CC2)nc1` as the compound, how does the fluorescence ratio to DMSO read?
Its fluorescence ratio to DMSO is inactive: 99%.

How did the fluorescence ratio to DMSO turn out when `COC(=O)C1C(=O)C2=C(CC1C)NC(C)=C(C(=O)OC(C)C)C2c1ccc(OC)c(O)c1` (stereo unspecified) was run?
Its fluorescence ratio to DMSO is active: 73%.

How did the fluorescence ratio to DMSO turn out when `COc1ccc(NC(=O)Cc2ccc(Cl)cc2)cc1NC(=O)c1ccco1` was run?
Its fluorescence ratio to DMSO is active: 60%.

For `COCCN(C(=O)CNC(=O)c1ccco1)C(C(=O)NC1CCCC1)c1cccc(OC)c1` (stereo unspecified), which fluorescence ratio to DMSO is on record?
The fluorescence ratio to DMSO was inactive: 97%.

`Cc1c(S(=O)(=O)N2CCN(c3cccc(C(F)(F)F)c3)CC2)c(=O)n(C)c(=O)n1C` was tested. Which fluorescence ratio to DMSO did it give?
The fluorescence ratio to DMSO was “inconclusive”.

With `O=C(O)CC(NC(=O)C12CC3CC(CC(C3)C1)C2)c1ccc(OC2CCCC2)cc1` (stereo unspecified) as the compound, how does the fluorescence ratio to DMSO read?
Its fluorescence ratio to DMSO is “inconclusive”.

How did the fluorescence ratio to DMSO turn out when `CC(=O)N/N=C/c1cc(C(C)C)cc(/C=N/NC(C)=O)c1O` was run?
The fluorescence ratio to DMSO was inactive: 117%.

Which fluorescence ratio to DMSO does the source give for `Cc1cc(C)c(C)c(S(=O)(=O)N2CCC(C(=O)NC3=NCCS3)CC2)c1C` here?
Its fluorescence ratio to DMSO is inactive: 96%.

How did the fluorescence ratio to DMSO turn out when `O=C(Nc1cccc(S(=O)(=O)Nc2ccc(Cl)cc2)c1)c1ccccn1` was run?
The fluorescence ratio to DMSO was “inconclusive”.

How did the fluorescence ratio to DMSO turn out when `CC(=O)NC(CCS(C)(=O)=O)C(=O)Nc1cc(Cl)ccc1Cl` (stereo unspecified) was run?
The fluorescence ratio to DMSO was “inconclusive”.

`CCc1nc2ccc(C(=O)N(C)Cc3ccco3)cn2c1N(C)CCCc1ccccc1` was tested. Which fluorescence ratio to DMSO did it give?
Its fluorescence ratio to DMSO is inactive: 98%.

How did the fluorescence ratio to DMSO turn out when `COc1ccc(CNC(=O)C2(C)Cc3c(-c4cccc(NC(C)=O)c4)ccnc3O2)cc1OC` (stereo unspecified) was run?
The fluorescence ratio to DMSO was inactive: 101%.

With `O=C(Nc1cccc(Cl)c1)Nc1nnc([C@@H]2C[C@H](O)[C@@H](CO)O2)s1` as the compound, how does the fluorescence ratio to DMSO read?
The fluorescence ratio to DMSO was “inconclusive”.

With `COc1cccc(CNC(=O)c2ccc(C)c(NC3=NC4CS(=O)(=O)CC4S3)c2)c1` (stereo unspecified) as the compound, how does the fluorescence ratio to DMSO read?
Its fluorescence ratio to DMSO is “inconclusive”.

With `CC1(C)CC(=O)C=C(NC2CCCCCC2)C1` as the compound, how does the fluorescence ratio to DMSO read?
The fluorescence ratio to DMSO was “inconclusive”.

With `CC(C)(CNC(=O)c1ccc(S(=O)(=O)Nc2cccc(C(F)(F)F)c2)cc1)N1CCOCC1` as the compound, how does the fluorescence ratio to DMSO read?
The fluorescence ratio to DMSO was active: 72%.

How did the fluorescence ratio to DMSO turn out when `Cc1ccc(S(=O)(=O)c2ccc([N+](=O)[O-])o2)cc1` was run?
Its fluorescence ratio to DMSO is active: 50%.

With `Cn1c(=O)oc2cc(S(=O)(=O)N3CCN(c4ccc(F)cc4)CC3)ccc21` as the compound, how does the fluorescence ratio to DMSO read?
The fluorescence ratio to DMSO was “inconclusive”.

With `CC(=O)NC12CC3CC(C1)CC(C(=O)OCC(=O)Nc1c(F)cccc1F)(C3)C2` as the compound, how does the fluorescence ratio to DMSO read?
Its fluorescence ratio to DMSO is “inconclusive”.

With `COc1ccc(OC)c(NC(=O)C2(C)CCN2Cc2cccc(OC)c2OC)c1` (stereo unspecified) as the compound, how does the fluorescence ratio to DMSO read?
The fluorescence ratio to DMSO was active: 71%.

For `Cc1ccc(CNS(=O)(=O)c2cc3c(cc2C)NC(=O)CO3)cc1`, which fluorescence ratio to DMSO is on record?
Its fluorescence ratio to DMSO is “inconclusive”.

`Cc1ccc(-n2c(CC#N)n[nH]c2=S)c(C)c1` was tested. Which fluorescence ratio to DMSO did it give?
The fluorescence ratio to DMSO was “inconclusive”.

How did the fluorescence ratio to DMSO turn out when `CCC(Sc1nc2c(cnn2-c2ccc(Cl)cc2)c(=O)[nH]1)C(=O)OC` (stereo unspecified) was run?
Its fluorescence ratio to DMSO is “inconclusive”.

With `CCN(CC)C(=O)C1CCCN(c2ccc([N+](=O)[O-])cc2/C=N/NC(=O)c2cccc(Br)c2)C1` (stereo unspecified) as the compound, how does the fluorescence ratio to DMSO read?
Its fluorescence ratio to DMSO is inactive: 98%.

With `CCOc1ccccc1C1NC(=O)CCC1[N+](=O)[O-]` (stereo unspecified) as the compound, how does the fluorescence ratio to DMSO read?
The fluorescence ratio to DMSO was inactive: 100%.

For `CCOc1ccc(N(CC(=O)Nc2ccc(OC)cc2)C2=NC3CS(=O)(=O)CC3S2)cc1` (stereo unspecified), which fluorescence ratio to DMSO is on record?
The fluorescence ratio to DMSO was “inconclusive”.

How did the fluorescence ratio to DMSO turn out when `Cc1ccsc1C(=O)NCC(C)(C)N1CCOCC1` was run?
Its fluorescence ratio to DMSO is “inconclusive”.

With `CC(=O)Nc1ccccc1-c1ccc(C)o1` as the compound, how does the fluorescence ratio to DMSO read?
Its fluorescence ratio to DMSO is “inconclusive”.

How did the fluorescence ratio to DMSO turn out when `CCn1c(=O)c2c(nc3n2CCCN3Cc2ccccc2)n(C)c1=O` was run?
Its fluorescence ratio to DMSO is “inconclusive”.

For `COc1ccc(N(C)S(=O)(=O)c2ccc3c(c2)oc(=O)n3C)cc1`, which fluorescence ratio to DMSO is on record?
The fluorescence ratio to DMSO was “inconclusive”.

With `COc1ccccc1N1CCN(S(=O)(=O)c2cnc[nH]2)CC1` as the compound, how does the fluorescence ratio to DMSO read?
The fluorescence ratio to DMSO was “inconclusive”.

`O=C(CCN1C(=O)c2ccccc2S1(=O)=O)N1CCN(c2cccc(Cl)c2)CC1` was tested. Which fluorescence ratio to DMSO did it give?
Its fluorescence ratio to DMSO is “inconclusive”.

Which fluorescence ratio to DMSO does the source give for `COc1cc(SC)ccc1C(=O)Nc1nc(C)cs1` here?
The fluorescence ratio to DMSO was “inconclusive”.

For `OC[C@@H]1CN(Cc2ccc(-c3ccccc3)cc2)C[C@H](n2cnc3c(NCc4ccc(F)cc4)ncnc32)O1`, which fluorescence ratio to DMSO is on record?
Its fluorescence ratio to DMSO is inactive: 96%.

`COc1ccccc1NS(=O)(=O)c1cc(NC(=O)CCC2CCCC2)ccc1N1CCOCC1` was tested. Which fluorescence ratio to DMSO did it give?
Its fluorescence ratio to DMSO is “inconclusive”.

How did the fluorescence ratio to DMSO turn out when `Cc1nc2sc(C(c3cccs3)N3CC(C)CC(C)C3)c(O)n2n1` (stereo unspecified) was run?
Its fluorescence ratio to DMSO is “inconclusive”.

For `CC(=O)c1cccc(NC(=O)c2ccc3c(Cl)c4c(nc3c2)CCCC4)c1`, which fluorescence ratio to DMSO is on record?
Its fluorescence ratio to DMSO is active: 73%.

Which fluorescence ratio to DMSO does the source give for `COCCCNc1ccn2nc(-c3ccc(OCc4ccccc4)cc3)cc2n1` here?
The fluorescence ratio to DMSO was “inconclusive”.

With `O=C(OCCN1C(=O)c2ccccc2C1=O)c1cccs1` as the compound, how does the fluorescence ratio to DMSO read?
The fluorescence ratio to DMSO was “inconclusive”.

With `CC(C(=O)NCC1CCCO1)N(C(=O)c1snc(C(N)=O)c1N)c1cccc(F)c1` (stereo unspecified) as the compound, how does the fluorescence ratio to DMSO read?
Its fluorescence ratio to DMSO is inactive: 95%.
